The assay concerns the target T1, OST1/SnRK2.6 expressed in Arabidopsis mesophyll cell protoplasts (Arabidopsis) (UniProt Q940H6).
T1 sequence: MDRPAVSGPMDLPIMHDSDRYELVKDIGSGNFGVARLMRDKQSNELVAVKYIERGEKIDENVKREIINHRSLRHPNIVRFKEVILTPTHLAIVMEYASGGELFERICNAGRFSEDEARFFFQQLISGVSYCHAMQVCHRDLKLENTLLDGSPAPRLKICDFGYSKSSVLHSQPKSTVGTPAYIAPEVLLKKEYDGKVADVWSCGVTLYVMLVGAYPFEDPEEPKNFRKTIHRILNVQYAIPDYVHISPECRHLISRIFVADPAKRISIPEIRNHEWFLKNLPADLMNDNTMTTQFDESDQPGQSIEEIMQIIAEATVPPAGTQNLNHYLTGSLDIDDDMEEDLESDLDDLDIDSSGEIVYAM
As to the kind of experiment: co-IP; M3Kδ6 and OST1/SnRK2.6 expressed in Arabidopsis mesophyll cell protoplasts.

No constants are given. Whether binding was seen depends on the method and setting. Binding seen in cells or lysates may run through a third protein.

Consider “M3Kδ6 expressed in Arabidopsis mesophyll cell protoplasts (enzyme)”, for which the binding result is “no binding”.

The values above are taken from PMC6940395.
